Laboratory results taken from PMC3458822, “Dimerization of DOCK2 Is Essential for DOCK2-Mediated Rac Activation and Lymphocyte Migration” (PLoS ONE, 2012).
Results are given in words; binding and its absence hold for the method and conditions named. In cells and extracts the contact can be indirect. Some binding calls cover weakened binding; strength is not graded here.

Amino acid sequences for entries named in this document (tags omitted).
UniProt Q8C3J5: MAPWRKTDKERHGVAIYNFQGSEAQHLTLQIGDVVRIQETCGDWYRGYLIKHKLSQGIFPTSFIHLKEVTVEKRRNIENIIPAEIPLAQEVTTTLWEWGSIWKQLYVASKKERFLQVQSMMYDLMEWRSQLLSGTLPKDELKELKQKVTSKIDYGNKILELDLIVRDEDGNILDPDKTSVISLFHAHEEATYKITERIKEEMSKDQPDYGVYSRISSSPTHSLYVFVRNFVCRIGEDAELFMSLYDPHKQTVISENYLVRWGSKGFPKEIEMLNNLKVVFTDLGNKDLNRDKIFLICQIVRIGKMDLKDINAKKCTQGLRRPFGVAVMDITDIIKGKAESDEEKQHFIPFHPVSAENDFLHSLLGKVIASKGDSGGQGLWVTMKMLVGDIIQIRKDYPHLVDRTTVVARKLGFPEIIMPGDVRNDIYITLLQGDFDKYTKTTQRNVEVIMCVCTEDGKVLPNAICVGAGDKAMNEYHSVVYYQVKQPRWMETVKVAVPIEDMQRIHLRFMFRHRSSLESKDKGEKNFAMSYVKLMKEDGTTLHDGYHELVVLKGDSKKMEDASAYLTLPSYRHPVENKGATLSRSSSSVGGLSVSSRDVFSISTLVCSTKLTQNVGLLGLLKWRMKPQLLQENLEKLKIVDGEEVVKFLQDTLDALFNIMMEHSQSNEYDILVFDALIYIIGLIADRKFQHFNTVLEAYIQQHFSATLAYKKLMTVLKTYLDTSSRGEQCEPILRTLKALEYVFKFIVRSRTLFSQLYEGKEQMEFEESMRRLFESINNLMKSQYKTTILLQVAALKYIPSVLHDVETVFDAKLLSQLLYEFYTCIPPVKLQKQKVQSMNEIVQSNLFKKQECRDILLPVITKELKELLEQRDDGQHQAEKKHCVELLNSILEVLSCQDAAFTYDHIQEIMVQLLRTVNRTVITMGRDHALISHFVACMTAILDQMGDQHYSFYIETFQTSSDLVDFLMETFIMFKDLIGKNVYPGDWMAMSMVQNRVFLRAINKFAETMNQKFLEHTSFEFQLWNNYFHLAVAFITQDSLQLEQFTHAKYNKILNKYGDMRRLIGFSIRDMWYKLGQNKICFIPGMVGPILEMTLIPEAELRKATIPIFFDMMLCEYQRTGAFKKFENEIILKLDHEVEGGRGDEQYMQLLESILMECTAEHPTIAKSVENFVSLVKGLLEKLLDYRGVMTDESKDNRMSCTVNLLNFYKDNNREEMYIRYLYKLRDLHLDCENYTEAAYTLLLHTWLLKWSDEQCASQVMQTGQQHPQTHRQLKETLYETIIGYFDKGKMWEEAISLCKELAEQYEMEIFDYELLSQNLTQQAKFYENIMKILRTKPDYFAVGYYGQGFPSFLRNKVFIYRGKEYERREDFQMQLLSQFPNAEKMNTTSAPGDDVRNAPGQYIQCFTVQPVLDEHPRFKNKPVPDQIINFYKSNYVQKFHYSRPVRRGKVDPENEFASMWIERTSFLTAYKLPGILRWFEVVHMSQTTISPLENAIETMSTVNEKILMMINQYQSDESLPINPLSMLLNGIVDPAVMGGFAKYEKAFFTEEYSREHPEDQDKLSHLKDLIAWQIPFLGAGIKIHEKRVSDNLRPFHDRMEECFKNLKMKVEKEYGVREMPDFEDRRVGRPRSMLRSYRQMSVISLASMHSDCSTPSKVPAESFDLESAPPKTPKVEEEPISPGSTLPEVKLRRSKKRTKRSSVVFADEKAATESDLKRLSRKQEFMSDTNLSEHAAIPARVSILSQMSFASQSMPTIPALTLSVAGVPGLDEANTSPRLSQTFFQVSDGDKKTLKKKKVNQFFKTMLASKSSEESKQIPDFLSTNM

Target: FLAG-tagged wild-type DOCK2 expressed in HEK-293T cells (murine) (UniProt Q8C3J5)
Assay: co-IP; FLAG- and GFP-tagged DOCK2 co-expressed in HEK-293T cells; extracts immunoprecipitated with anti-FLAG M2 or anti-GFP antibody (reciprocal), immunoblotting

binding: binds
Substance: FLAG-tagged wild-type DOCK2 expressed in HEK-293T cells (from UniProt Q8C3J5 1-1828)
